We go through 42 sequences from PMC7819943, “Rice protein-binding microarrays: a tool to detect cis-acting elements near promoter regions in rice”.

Protein sequences, listed by entry. Tags and fused reporters are not part of them.
UniProt Q0JBA9, entry or part of it: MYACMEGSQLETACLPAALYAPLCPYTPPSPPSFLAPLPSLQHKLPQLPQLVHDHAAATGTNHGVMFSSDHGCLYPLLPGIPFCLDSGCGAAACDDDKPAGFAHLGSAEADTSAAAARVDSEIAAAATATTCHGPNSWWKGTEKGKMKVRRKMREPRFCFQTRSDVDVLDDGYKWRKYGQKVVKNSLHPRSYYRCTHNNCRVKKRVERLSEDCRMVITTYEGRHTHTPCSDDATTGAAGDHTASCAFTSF

Some of the results follow.

This assay concerns the target OsWRKY34 (Oryza sativa, UniProt Q0JBA9 1-250). Briefly: protein-binding microarray (RPBM); PBS, 2% BSA, 51.3 ng/ul salmon testes DNA, 50 uM zinc acetate, 200 nM TF, 25 C, 1 h; high values mean tight binding. The conditions noted are these: protein: recombinant; tags: N-terminal polyhistidine and DsRed monomer fusion (pET32a); label: CyDye5-dUTP incorporated in the synthesized complementary strand; 3' TTTTT single-stranded linker to array surface; dsDNA, one strand shown. In short, it runs like this:
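The binding signal is fluorescence intensity per array feature (arbitrary units). Readings came from an Axon 4000B scanner after a washed, 2% BSA-blocked, double-stranded custom Agilent array had been incubated for 1 h at 25 °C with 200 nM protein and 50 µM zinc acetate. The protein was a Ni–NTA-purified transcription factor fused N-terminally to polyhistidine and DsRed, expressed in E. coli BL21-CodonPlus.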
With “GGTTTGGTGGCGGAAAAGGTGGAGGCCTAGGTGGTGGTGGCGGAGTCACCTAGTGCAG”, the binding signal was 8660 fluorescence intensity (a.u.). Turning to “GAATGGGCCACGTCACTGTTCACTCCTGGTCCCATTCCATCGGAGTCACCTAGTGCAG”, the binding signal was 8150 fluorescence intensity (a.u.).

Turning to “GCATTGGTTGGTGGTTTGGTGACGGCTTCGTTGTAGGCCTCGGAGTCACCTAGTGCAG”, the binding signal was 9760 fluorescence intensity (a.u.). To “ATATAGTTGGGGTGATCACAGGTTGCGAATTGCATAATGTCGGAGTCACCTAGTGCAG” belongs 8820 fluorescence intensity (a.u.); to “CATTTTACGGTCAAGCATGTTTAAAAAAGTCAACGGCGAACGGAGTCACCTAGTGCAG”, 13700 fluorescence intensity (a.u.). Regarding “GGTGCTCGTGTTCTAGCTCTGCTTCGATGGAGTAATCATGCGGAGTCACCTAGTGCAG”, the binding signal is 9070 fluorescence intensity (a.u.).

Take “GCAGTGGTGGGGAGAAGTTAGTCGCCATGCGATCATTAGACGGAGTCACCTAGTGCAG”: the binding signal is 8320 fluorescence intensity (a.u.).

For the sequence “ACTGTCCCACTGTCCCACCCACCCACCACTCAACGGCTCACGGAGTCACCTAGTGCAG”, the binding signal is 8780 fluorescence intensity (a.u.). With “TGGGTGGTTGGAGCGCGATACAAGGATTGGGCATTTTGGACGGAGTCACCTAGTGCAG”, the binding signal was 9360 fluorescence intensity (a.u.). As to “GTCACCTTTTCTTTTATCAACATTCATTTGTTTTATTACTCGGAGTCACCTAGTGCAG”, the binding signal is 8270 fluorescence intensity (a.u.). “CTCGCTCTTGACGGCATTGCCCGTTCTTGGTATTTCAATTCGGAGTCACCTAGTGCAG”: the binding signal was 9460 fluorescence intensity (a.u.).

Turning to “ACCCTTATGTCACAAGCTGCCGCTACACAGATTCGCCTCACGGAGTCACCTAGTGCAG”, the binding signal is 8580 fluorescence intensity (a.u.). To “TTGTAAGTTTGTGTGTAGGAAAGTTTTGATGTGAGGAAAACGGAGTCACCTAGTGCAG” belongs 9150 fluorescence intensity (a.u.); to “TATCCTCTTATAGTTTTCTGGTGTGGAATTCTGTCTTGTACGGAGTCACCTAGTGCAG”, 9930 fluorescence intensity (a.u.); to “ACACCTACTGCTCACTCCGGCCAACCTAGCTAGCTTCCTCCGGAGTCACCTAGTGCAG”, 12100 fluorescence intensity (a.u.). To “ATGTCGTGGTGGCACTGCGCGAAGGGGAGGGAGCCGAGCTCGGAGTCACCTAGTGCAG” belongs 8670 fluorescence intensity (a.u.). As to “CAAAGTCTCGCCATTTTCTCCTCCGTTTTGTTTTTTTTTTCGGAGTCACCTAGTGCAG”, the binding signal is 9960 fluorescence intensity (a.u.). Next, “GCTCTCGCCTCGCGGCTCTGCCCGCCGTTTCGCCCCAAAACGGAGTCACCTAGTGCAG”: 8600 fluorescence intensity (a.u.).

Turning to “CGCCCCACCATCCGCGTATTCGGCCGCTCCGCCGTCCAGGCGGAGTCACCTAGTGCAG”, the binding signal is 8950 fluorescence intensity (a.u.). To “ACTTGTCAGCGAATTCGATTTTCGTCCTTAACCCCAAAACCGGAGTCACCTAGTGCAG” belongs 8280 fluorescence intensity (a.u.). For the sequence “AAACACACTCAGTATCCGTCTCGCTCTCCTGCCTCGCCGCCGGAGTCACCTAGTGCAG”, the binding signal was 10300 fluorescence intensity (a.u.). To “GATGAGTGGTCAAACATTGGTTAAAAAGTCAACGGCGTCACGGAGTCACCTAGTGCAG” belongs 12800 fluorescence intensity (a.u.); to “ATTCCACTGGGTCGGGTCCCCTAAGCCGCCAGCGCGCGCGCGGAGTCACCTAGTGCAG”, 9200 fluorescence intensity (a.u.); to “AAAACACGCCATGGTCATCGACGAACCGCCTGTCCATTTCCGGAGTCACCTAGTGCAG”, 8370 fluorescence intensity (a.u.).

Take “CGCTCAATGACCGGTTGATGCCCTAGCCGCCAAACCTTGCCGGAGTCACCTAGTGCAG”: the binding signal was 9300 fluorescence intensity (a.u.). To “GCTGTTCCTTTTCCAAACCGTACCGAACCTTTGGCATATTCGGAGTCACCTAGTGCAG” belongs 10100 fluorescence intensity (a.u.); to “GCTTGTTGAGGTTTCACTGTATTCACATTTTTTAATTTGTCGGAGTCACCTAGTGCAG”, 8670 fluorescence intensity (a.u.); to “TTATTTTGTGATTACTATCTCTCCGTTCATGTTTCTATCTCGGAGTCACCTAGTGCAG”, 16400 fluorescence intensity (a.u.). For the sequence “TGGGTGGGACCTCACCACCGGGCTCGACCGCTACCTGACGCGGAGTCACCTAGTGCAG”, the binding signal was 8250 fluorescence intensity (a.u.). To “CCGCTGATCCGGTCAGAAACCTCCAGTCTCTTGGCTCTGCCGGAGTCACCTAGTGCAG” belongs 9220 fluorescence intensity (a.u.). For the sequence “GTCGATTCTCCACTCCTCATTTTTCTCACGATTTCCCCTTCGGAGTCACCTAGTGCAG”, the binding signal was 9800 fluorescence intensity (a.u.). Take “TTGTTTAGTAGTACCATTTATTGGTTGATTTTGATTGCTTCGGAGTCACCTAGTGCAG”: the binding signal was 8120 fluorescence intensity (a.u.). Consider “TTCTTCCACTTAAGCTGAACTATATATTCAATTCAATATACGGAGTCACCTAGTGCAG”, for which the binding signal was 8580 fluorescence intensity (a.u.). To “ACTCTTATTGTCTTCACGTTGTCTTATCAGCCACGATCAACGGAGTCACCTAGTGCAG” belongs 17900 fluorescence intensity (a.u.); to “TTTCGCCGCGTCGCGCGCATTGTCCGCCATTGCTTTCGTTCGGAGTCACCTAGTGCAG”, 9530 fluorescence intensity (a.u.); to “CTATTGCATTACTGATTAGACCATTTATTTTTAATTATTTCGGAGTCACCTAGTGCAG”, 9540 fluorescence intensity (a.u.). Turning to “AACACAAATTCGAATTTTTTTCCTTTATTTCTCTATTTTTCGGAGTCACCTAGTGCAG”, the binding signal was 12700 fluorescence intensity (a.u.). With “TATTCTGACCTCCCGCCTATGCTTTGTTTTCCTTGCTAGCCGGAGTCACCTAGTGCAG”, the binding signal was 8060 fluorescence intensity (a.u.). To “AGTTGTTAGAGTCTTTTGTTGTGTTTAACAGTGGTAAGAACGGAGTCACCTAGTGCAG” belongs 8430 fluorescence intensity (a.u.). Consider “ATCACCCCACCATTGCCTCGACGATCTCCTCTCTCGGCGCCGGAGTCACCTAGTGCAG”, for which the binding signal was 11100 fluorescence intensity (a.u.). Next, “ACTTATTATCTTACATGATCATATGCTTCTGTTCCCTTTTCGGAGTCACCTAGTGCAG”: 9320 fluorescence intensity (a.u.); “CTTCTGCCGCGCCACCAACCATCCATCGCTGACGCTTCCACGGAGTCACCTAGTGCAG”: 10500 fluorescence intensity (a.u.).
